Assay results taken from PubChem BioAssay AID2517 (National Center for Advancing Translational Sciences (NCATS), 2010).
Where “and” joins values, the source holds several entries; their conditions need not be identical. Equal values may be shown once. Out of some 350,000 compounds screened, about 1,200 (0.34%) were called active. Inconclusive means that the source gave no clear call. Such entries were picked first, then a sample of the others. Calls follow the shape of the dose curve; as a rule, active = well fitted inhibition curve with a large enough effect; inconclusive = small, poorly fitted or top-dose-only effect; inactive = no such curve, though single readings can be large or run the other way. A potency beside an inconclusive call is a rough fit, not a confirmed value.

Chains of the proteins cited; added tags and fusions are not shown.
UniProt P27695, whole entry, looked up: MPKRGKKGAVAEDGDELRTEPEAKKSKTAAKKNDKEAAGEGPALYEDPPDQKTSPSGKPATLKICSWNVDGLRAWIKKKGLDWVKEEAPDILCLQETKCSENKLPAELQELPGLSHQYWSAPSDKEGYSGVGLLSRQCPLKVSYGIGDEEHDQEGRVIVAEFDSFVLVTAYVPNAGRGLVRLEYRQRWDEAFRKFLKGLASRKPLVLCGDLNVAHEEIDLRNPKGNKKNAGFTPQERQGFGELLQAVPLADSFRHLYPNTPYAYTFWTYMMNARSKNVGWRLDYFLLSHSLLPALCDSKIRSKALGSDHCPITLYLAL

biological target: DNA repair nuclease/redox regulator APEX1 (Homo sapiens) (UniProt P27695); assay: qHTS Assay for Inhibitors of the Human Apurinic/apyrimidinic Endonuclease 1 (APE1); conditions: recombinant APE1, TAMRA/BHQ-2 abasic DNA cleavage fluorescence; activity change, negative = inhibition: at 65.8 µM (top of the series); also: nearly all actives have a fitted effect of over 55% in size;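 as to activity change, negative = inhibition: plate controls were vehicle for no effect and reference inhibitor for full effect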
Procedure, shortened: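 0.75 nM APE1 + cpd, 15 min RT; start w/ 50 nM TAMRA/BHQ-2 THF-abasic dsDNA; kinetic fluor 525/598 nm ×3 reads @60 s; Δ(read3−read1); normalized to DMSO and NSC13755 control wells.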
Potency is read from the fitted curve at half-maximal effect.

Structure (SMILES)	Potency	activity change, negative = inhibition
O=[N+]([O-])c1ccc(OC/C=C2\Oc3ccc([N+](=O)[O-])cc3C2N2CCOCC2)cc1 (stereo not drawn)	inconclusive: 0.282 µM [inhibitor, full curve, poor fit]	–
O=C(CSc1ccccn1)N/N=C/c1cc([N+](=O)[O-])ccc1O	–	inactive: 4.25%
CCOC(=O)N1CCc2c(sc(NC(=O)CN(CC)CC)c2C#N)C1	inconclusive: 3.98 µM [inhibitor, single point]	–
COc1ccc(-c2nc3cnc(N4CCN(C)CC4)nc3n(-c3ccc(OC)cc3)c2=O)cc1	–	inactive: -6.66%
Nc1ccc2c3c(cccc13)C(=O)NC2=O	inconclusive: 39.8 µM [inhibitor, partial curve]	–
CC1CC(C)CN(S(=O)(=O)c2cccc(C(=O)N3C(=O)c4cccc(N)c4C3=O)c2)C1 (stereo not drawn)	inconclusive: 20 µM [inhibitor, partial curve, poor fit]	–
COc1cccc(/C=C2\SC(=O)NC2=O)c1OCc1ccc(C(=O)O)cc1	inconclusive: 10 µM [inhibitor, partial curve]	–
CCCOc1cc(C)c(S(=O)(=O)N2CCOCC2)cc1C	inconclusive: 0.0056 µM [inhibitor, full curve, poor fit]	–
C[C@@H]1CC[C@H]2C(=O)O[C@H](CN=[N+]=[N-])CN2[C@@H]1c1ccc(Br)cc1	–	inactive: 17.5% [at 12.4 µM]
CCOC(=O)[C@H](CCc1ccccc1)N[C@@H](C)C(=O)N1Cc2cc(OC)c(OC)cc2C[C@H]1C(=O)O	–	inactive: -7.23%
CCOC(=O)C1=C(C)N=c2s/c(=C\c3ccc(OCC(=O)O)cc3)c(=O)n2C1c1ccccc1OC (stereo not drawn)	inconclusive: 23.8 µM [inhibitor, single point]	–
N#C/C(=C/c1ccc(O)c(O)c1)c1nc2ccccc2[nH]1	–	inactive: -31.7%
Fc1ccc2cc(-c3ccccc3)ncc2c1	–	inactive: -7.01%
O=C(N/N=C/c1ccccc1)c1ccc(NC(=O)c2ccc(F)cc2)cc1	–	inactive: 35.2%
COc1ccc(-c2cc(C(F)(F)F)c3c(=O)n(-c4ccccc4)[nH]c3n2)cc1	inconclusive: 39.8 µM [inhibitor, single point]	–
Cc1cccc(N2CCN(S(=O)(=O)c3ccc4[nH]c(=O)c(=O)[nH]c4c3)CC2C)c1 (stereo not drawn)	inconclusive: 39.8 µM [inhibitor, single point]	–
COc1ccc2nc(NC(=O)CCNC(=O)c3ccco3)sc2c1	inconclusive: 29.9 µM [inhibitor, single point]	–
Cc1ccc(CC(CC(=O)Nc2cccc(C(F)(F)F)c2)C(=O)O)cc1 (stereo not drawn)	inconclusive: 44.7 µM [inhibitor, single point]	–
CN1C(=O)N(c2nnc(C(C)(C)C)s2)C(=O)C1c1ccccc1 (stereo not drawn)	inconclusive: 8.91 µM [inhibitor, single point]	–
COc1ccc(OC)c(NC(=O)CS(=O)(=O)Cc2nc(-c3ccccc3C)oc2C)c1	inconclusive: 44.7 µM [inhibitor, single point]	–
Cc1ccccc1CN1C2=NCCCN2c2ccccc21	inconclusive: 3.16 µM [inhibitor, single point]	–

Structure (SMILES)	Potency	activity change, negative = inhibition
CCOC(=O)c1sc(=S)n(-c2ccc(OC)cc2)c1C	inconclusive: 44.7 µM [inhibitor, single point]	–
O=C(OCCN1CCCCC1)C1(c2ccccc2)CCCC1	inconclusive: 44.7 µM [inhibitor, single point]	–
C=CCN1c2ccccc2[C@]23C[C@@H](C(=O)OC)N(C(=O)NCCC)C2=NC(C(=O)OC)=C(C(=O)OC)[C@H]13	inconclusive: 35.5 µM [inhibitor, single point]	–
O=C(/C=C/c1ccccc1)NC(=S)NNC(=O)c1cccnc1	–	inactive: 2.21%
Cc1ccc2c(c1)C(O)(CC(=O)c1ccc(C)s1)C(=O)N2 (stereo not drawn)	inconclusive: 3.16 µM [inhibitor, partial curve]	–
COc1ccccc1NC(=O)c1ccc(Cl)c(S(=O)(=O)NCc2ccco2)c1	–	inactive: 12%
CC(=C\C(=O)O)/C(=C/c1ccco1)C(=O)O	inconclusive: 31.6 µM [inhibitor, single point]	–
O=C(CSc1ncn[nH]1)NCCC(c1ccccc1)c1ccccc1	inconclusive: 44.7 µM [inhibitor, single point]	–
COc1c(/C=N/NC(=O)c2ccncc2)c(CCN(C)C(C)=O)cc2c1OCO2	inconclusive: 8.91 µM [inhibitor, single point]	–
C#CCOCCOCCOCCNc1nc(N2CCN(C(=O)CCCCCCCCCCNC(=O)[C@H](CCCCN)n3cc(C)nn3)CC2)nc(N2CCN(C(=O)CCCCCCCCCCNC(=O)[C@H](CO)n3cc(CCCSC)nn3)CC2)n1	inconclusive: 37.7 µM [inhibitor, single point]	–
COc1ccc(NS(=O)(=O)c2ccc(NC(=S)NC(=O)/C=C/c3ccccc3)cc2)nn1	–	inactive: -0.0502%
NC(=O)c1ccccc1OCCOCCOCCOc1ccccc1C(N)=O	inconclusive: 0.355 µM [inhibitor, partial curve]	–
COc1ccc(N2CCN(c3ncnc4c3[nH]c3ccccc34)CC2)cc1	–	inactive: -0.254%
O=C1Cc2ccccc2Sc2ccccc21	inconclusive: 44.7 µM [inhibitor, single point]	–
CNC(=S)NNc1nncc2ccccc12	inconclusive: 0.0501 µM [inhibitor, full curve, poor fit]	–
COc1ccc(C2/C=C\CC(OCc3ccccc3)CC(=O)N2Cc2cccc(F)c2)cc1 (stereo not drawn)	inconclusive: 35.5 µM [inhibitor, single point]	–
C[C@@H]1O[C@@H](O[C@H]2[C@H](O)[C@@H](O)[C@H](Oc3c(-c4ccc(O)c(O)c4)oc4cc(O)cc(O)c4c3=O)O[C@@H]2CO)[C@H](O)[C@H](O)[C@H]1O	–	inactive: 4.04%
C=CC1=C(C)C2=NC1=CC1=NC(=CC3=NC(=CC4=NC(=C2)C(C)=C4CCC(=O)O)C(CCC(=O)O)=C3C)C(C=C)=C1C.[Zn]	active: 4.47 µM	–
C=CCOC(=O)c1[nH]c2c(c1C)C(=O)CC(c1ccco1)C2 (stereo not drawn)	inconclusive: 28.2 µM [inhibitor, partial curve]	–
O=C(CSc1nc(NS(=O)(=O)c2ccccc2)cc(=O)[nH]1)Nc1ccc(F)cc1	inconclusive: 10 µM [inhibitor, single point]	–
O=C(Cn1cc(F)c(=O)[nH]c1=O)NCCO	–	inactive: 4.96%

Structure (SMILES)	Potency	activity change, negative = inhibition
CC(=O)c1c(C(C)=O)c(C)n(-c2ccc(N)c(C)c2)c1C	–	inactive: 1.03%
COC(=O)C1CCN(c2nc3ccccc3nc2C(C#N)C(=O)NCCc2ccccc2)CC1 (stereo not drawn)	inconclusive: 5.62 µM [inhibitor, full curve]	–
CCOC(=O)c1ccc(N2CCOCC2)c(NS(=O)(=O)c2ccc(F)cc2)c1	inconclusive: 23.8 µM [inhibitor, single point]	–
C[N+](C)(C)CCOC(=O)C1(c2ccccc2)CCCC1	–	inactive: 3.03%
O=c1cc(-c2ccccc2)[nH]c2cc(Cl)ccc12	inconclusive: 7.08 µM [inhibitor, single point]	–
O=C(c1cccs1)N1CCC(c2nc3ccccc3s2)CC1	inconclusive: 44.7 µM [inhibitor, single point]	–
CC(C)C(=O)N1CCC2(CC1)Oc1ccc(F)cc1C(=O)C21CC(c2ccc(Cl)cc2)=NO1 (stereo not drawn)	inconclusive: 8.91 µM [inhibitor, single point]	–
O=C1C(SCCO)=C(SCCO)C(=O)c2ccccc21	inconclusive: 28.2 µM [inhibitor, partial curve] and inconclusive: 12.6 µM [inhibitor, partial curve]	–
O=C(O)c1ccc(/C=N/NC(=O)c2cc3c(ccc4ccccc43)o2)cc1	inconclusive: 26.7 µM [inhibitor, single point]	–
COC(=O)c1cn(C)c2ccc(S(=O)(=O)N3CCCC3)cc2c1=O	–	inactive: -3.4%
CC(C)=CCOc1cc2oc(=O)ccc2cc1O	inconclusive: 22.4 µM [inhibitor, partial curve]	–
O=c1cc(-c2cccc(F)c2)[nH]c2ccc(Cl)cc12	inconclusive: 1.12 µM [inhibitor, partial curve]	–
COc1ccc(NC(=O)c2c(-c3c(Cl)cccc3Cl)noc2C)c(OC)c1	inconclusive: 37.7 µM [inhibitor, single point]	–
O=C(c1cc(C(F)(F)F)cc(C(F)(F)F)c1)N1CCC[C@@]2(CCN(c3ccncc3)C2)C1	–	inactive: 2.69%
CCCCNc1nc(C)nc2c1nc(-c1ccccc1)n2CCN1CCCC1	–	inactive: -3.49%
NCC(=O)N[C@@H](CCCN=C(N)N)C(=O)NCC(=O)N[C@@H](CCC(=O)O)C(=O)N[C@@H](CO)C(=O)O	–	inactive: -4.02%
Cc1cc(=O)[nH]c(SC(C(=O)O)c2ccccc2)n1 (stereo not drawn)	inconclusive: 8.91 µM [inhibitor, single point]	–
C#CCOCCOCCOCCNc1nc(N2CCN(C(=O)CCCCCCCCCCNC(=O)[C@H]([C@@H](C)CC)n3cc(CCCCN=C(N)N)nn3)CC2)nc(N2CCN(C(=O)CCCCCCCCCCNC(=O)[C@H](CCCCN)n3cc(C[C@@H](C)CC)nn3)CC2)n1	inconclusive: 37.7 µM [inhibitor, single point]	–
CC1CCCC(NC(=O)COC(=O)/C=C/c2ccco2)C1C (stereo not drawn)	inconclusive: 16.8 µM [inhibitor, single point]	–
CO[C@H]1COC(=O)C/C=C\[C@@H](C)[C@H](OC)COC(=O)CCC[C@@H]1C	inconclusive: 4.47 µM [inhibitor, single point]	–
O=[N+]([O-])c1ccc(SCCO)nc1SCCO	inconclusive: 5.01 µM [inhibitor, single point]	–

A stretch from further up, as a working copy:
Structure (SMILES)	Potency	activity change, negative = inhibition
Cc1cccc(N2CCN(S(=O)(=O)c3ccc4[nH]c(=O)c(=O)[nH]c4c3)CC2C)c1 (stereo not drawn)	inconclusive: 39.8 µM [inhibitor, single point]	–
COc1ccc2nc(NC(=O)CCNC(=O)c3ccco3)sc2c1	inconclusive: 29.9 µM [inhibitor, single point]	–
